As a reminder, the Ki is a dissociation constant, usually derived from enzyme kinetics or from competition with a known ligand. Read a high Ki as a looser hold on the target.

The assay concerns the target T1, Androgen receptor (Rattus norvegicus, UniProt P15207).
T1 sequence (P15207 whole entry): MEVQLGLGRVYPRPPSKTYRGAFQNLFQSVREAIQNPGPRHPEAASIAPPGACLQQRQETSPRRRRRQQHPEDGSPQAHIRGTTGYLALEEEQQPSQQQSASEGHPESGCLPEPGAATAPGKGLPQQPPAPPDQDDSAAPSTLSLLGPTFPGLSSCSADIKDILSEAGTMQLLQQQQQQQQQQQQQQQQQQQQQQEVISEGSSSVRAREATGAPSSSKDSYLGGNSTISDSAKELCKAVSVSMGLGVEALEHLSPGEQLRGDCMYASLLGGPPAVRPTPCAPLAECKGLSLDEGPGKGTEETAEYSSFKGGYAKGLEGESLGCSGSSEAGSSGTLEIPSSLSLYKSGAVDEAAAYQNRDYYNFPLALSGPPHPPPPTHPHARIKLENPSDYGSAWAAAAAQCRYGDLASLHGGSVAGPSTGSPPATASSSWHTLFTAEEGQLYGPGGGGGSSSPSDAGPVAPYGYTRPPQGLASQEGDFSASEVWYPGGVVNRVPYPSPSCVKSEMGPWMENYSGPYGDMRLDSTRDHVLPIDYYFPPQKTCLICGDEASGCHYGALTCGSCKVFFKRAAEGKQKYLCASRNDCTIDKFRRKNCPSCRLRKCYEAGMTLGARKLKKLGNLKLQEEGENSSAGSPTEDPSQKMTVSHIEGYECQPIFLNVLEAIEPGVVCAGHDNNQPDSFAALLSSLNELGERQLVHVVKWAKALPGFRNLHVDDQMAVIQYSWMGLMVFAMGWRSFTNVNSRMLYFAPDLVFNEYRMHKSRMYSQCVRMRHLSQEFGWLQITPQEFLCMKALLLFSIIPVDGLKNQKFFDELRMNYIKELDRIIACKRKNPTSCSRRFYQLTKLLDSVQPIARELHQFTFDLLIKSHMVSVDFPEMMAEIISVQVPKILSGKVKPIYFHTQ

Consider `C[C@](O)(CCc1ccc(Br)cc1)C(=O)Nc1ccc(C#N)c(C(F)(F)F)c1`, for which the Ki came out at 251 nM. As for `C[C@](O)(CCc1ccc(C#N)cc1)C(=O)Nc1ccc(C#N)c(C(F)(F)F)c1`, the figure is 884 nM.
